Out of some 1,200 compounds screened, fewer than 10 were called active. Calls come from the whole dose curve; as a rule, active = well fitted curve in the direction sought with a large enough effect; inconclusive = small, poorly fitted or top-dose-only effect, or another doubt; inactive = no such curve, though single readings can be large or run the other way. Some of the results follow.

The chains behind the UniProt entries cited, without tags or fusion partners. Where a name states a change or a piece, a line headed by the entry shows the natural chain unless it says otherwise.
UniProt P11308: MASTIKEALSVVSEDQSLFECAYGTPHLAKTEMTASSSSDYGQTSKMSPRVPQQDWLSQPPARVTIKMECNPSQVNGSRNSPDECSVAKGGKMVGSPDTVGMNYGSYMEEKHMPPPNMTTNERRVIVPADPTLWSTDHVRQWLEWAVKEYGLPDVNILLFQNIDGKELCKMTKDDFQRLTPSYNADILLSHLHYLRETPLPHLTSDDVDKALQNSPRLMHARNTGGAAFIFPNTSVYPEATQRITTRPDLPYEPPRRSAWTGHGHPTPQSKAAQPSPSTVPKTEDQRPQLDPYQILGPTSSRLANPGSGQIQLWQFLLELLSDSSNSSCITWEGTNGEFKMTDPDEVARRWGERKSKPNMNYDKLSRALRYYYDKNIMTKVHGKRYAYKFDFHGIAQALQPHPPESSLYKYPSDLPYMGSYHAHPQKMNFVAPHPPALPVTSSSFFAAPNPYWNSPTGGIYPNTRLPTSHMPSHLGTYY

The assay concerns the target Transcriptional regulator ERG (Homo sapiens) (UniProt P11308). Description: qHTS for Small Molecule Inhibitors of the ERG Ets/DNA interaction: TR assay against cherry picks. Note: % of control where 0% means no effect. Conditions: ERG Ets domain-DNA fluorescence polarization, Texas red probe; at 154 µM (top of the series). In a few lines: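 Polarization read sequentially for fluorescein (ex 480/em 535 nm) and Texas red (ex 555/em 632 nm) probes, 5 nM and 100 nM solutions, displaced from His-ERG Ets domain (1 uM solution), pH 7.5 Tris/KCl/EDTA/DTT buffer.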
As for `Cc1cc(=O)oc2cc(OCC(=O)OCC(=O)Nc3ccc(C(C)C)cc3)ccc12`, the activity change, negative = inhibition was inactive: 0.864%.

Regarding `CCOc1ccc2[nH]c3c(NCCO)ncnc3c2c1`, the activity change, negative = inhibition was inactive: -27.1%.

As for `Cc1cc(NC(=O)CCC(=O)N(CC(=O)NC2CCCC2)c2ccc(C)c(F)c2)no1`, the activity change, negative = inhibition is inactive: 1.45%.

Regarding `NC(=O)C1(N2CCCCC2)CCN(C(=O)CSc2nc3ccccc3s2)CC1`, the activity change, negative = inhibition is inactive: -6.18%.

As to `CSc1nc2c(c(=O)[nH]1)C(c1cccc(Br)c1)CC(=O)N2` (configuration not stated), the activity change, negative = inhibition was inactive: 0.965%.

For the compound `Cn1c(=O)c(N)c2c3c(c(Br)ccc31)C(=O)c1ccccc1-2`, the activity change, negative = inhibition was inactive: 9.63%.

For `COc1ccc(OC)c(NC(=O)c2cn3c4c(ccc(Cl)c4c2=O)OC(C)C3)c1` (configuration not stated), the activity change, negative = inhibition was inactive: 4.44%.

Regarding `O=C(Cc1csc(-c2ccccc2)n1)NCc1ccc(F)cc1`, the activity change, negative = inhibition is inactive: 2.44%.

For `COc1ccc(CNC(=O)CN2C(=O)NC3(CCCCCC3)C2=O)cc1OC`, the activity change, negative = inhibition was inactive: 10.2%.

Regarding `N#CC12COC3(CCCCC3C1(C#N)C#N)OC2=N` (configuration not stated), the activity change, negative = inhibition was inactive: 12.6%.

Regarding `COc1cccc(CN2CCN(S(=O)(=O)c3ccc(NC(C)=O)cc3)CC2)c1OC`, the activity change, negative = inhibition is inactive: 0.709%.

For the compound `CCN(C(=O)COC(=O)CSc1ccc(C)cc1C)c1c(N)n(Cc2ccccc2)c(=O)[nH]c1=O`, the activity change, negative = inhibition was inactive: 6.29%.

Regarding `O=C(OCC(=O)N1CCN(c2ccccc2)CC1)c1cccc([N+](=O)[O-])c1`, the activity change, negative = inhibition is inactive: -8.8%.

On to `Cc1ccccc1C(=O)N/N=C1/SCC(=O)N1Cc1ccccc1`, for which the activity change, negative = inhibition is inactive: 5.82%.

With `CC1(C(=O)O)CCC(C(N)=O)C1(C)C` (configuration not stated), the activity change, negative = inhibition was inactive: -16.1%.

`COc1cc(/C=N/NS(=O)(=O)c2ccc3ccccc3c2)ccc1OCc1ccc(C(=O)O)cc1`: the activity change, negative = inhibition was inactive: -24.2%.

On to `CC(=O)Nc1ccc(NC(=O)C(C)OC(=O)C2CCN(S(=O)(=O)c3ccc4c(c3)OCCO4)CC2)cc1` (configuration not stated), for which the activity change, negative = inhibition is inactive: 1.51%.

On to `Oc1ccc(NCc2ccccc2OCc2ccccc2)cc1`, for which the activity change, negative = inhibition was inactive: 3.23%.

Turning to `COc1ccc(-c2n(CC(=O)OC3CC(C)CCC3C(C)C)c3ccccc3[n+]2C)cc1` (configuration not stated), the activity change, negative = inhibition was inactive: 1.26%.

Take `O=C(CSC(=S)N1CCCCC1)Nc1ncc2c(n1)CCCC2=O`: the activity change, negative = inhibition was inactive: 17.3%.

Take `Cn1ccc(C(=O)OCC(=O)Nc2ccccc2)n1`: the activity change, negative = inhibition is inactive: -15.8%.

In the case of `O=C(NCCc1ccc(Cl)cc1)C1CCCN1C(=O)Nc1ccccc1` (configuration not stated), the activity change, negative = inhibition is inactive: 2.2%.

As to `Cc1ccc(CNC(=O)COc2ccc(S(=O)(=O)N3CCCC3)cc2)cc1`, the activity change, negative = inhibition was inactive: 0.765%.

For the compound `O=C1C(=O)c2ccccc2C(O)=C1C1CCC(c2ccc(Cl)cc2)CC1` (configuration not stated), the activity change, negative = inhibition is inactive: -16.1%.

For `O=C(Nc1ccccc1)Nc1ncc([N+](=O)[O-])s1`, the activity change, negative = inhibition was inactive: -16.8%.

As to `OC(Cn1cnnc1)c1ccccc1` (configuration not stated), the activity change, negative = inhibition is inactive: 3.72%.

On to `CC1CCN(c2ccc(/C=N/n3nnnc3N)cc2[N+](=O)[O-])CC1`, for which the activity change, negative = inhibition is inactive: -2.44%.

Turning to `CCCn1c(=O)c(C(=O)NNS(=O)(=O)c2ccc(C)cc2)c(O)c2ccccc21`, the activity change, negative = inhibition was inactive: 1.97%.

For `Clc1ccc(-c2cc3ccccc3nc2N2CCOCC2)cc1`, the activity change, negative = inhibition was inactive: -6.53%.

`Cc1cccc(OCc2ccc(C(=O)N3CCOCC3)o2)c1`: the activity change, negative = inhibition was inactive: 4.41%.

As to `Cc1ccc(NC(=S)NC(=O)c2cncc(Br)c2)cc1Cl`, the activity change, negative = inhibition was inactive: 1.61%.

For `c1ccc(Nc2ncnc3[nH]ncc23)cc1`, the activity change, negative = inhibition is inactive: 0.617%.

Consider `C=CCn1c(=O)c2c(nc(-c3ccc(S(=O)(=O)O)cc3)n2C)n(C)c1=O`, for which the activity change, negative = inhibition is inactive: -8.95%.

As to `Cc1ccc(C(=O)NCC(=O)NCCCc2ccccc2)s1`, the activity change, negative = inhibition was inactive: -1.86%.

For the compound `CC(=O)Nc1ccc(CCCCc2ccc(NC(C)=O)cc2)cc1`, the activity change, negative = inhibition is inactive: -2.21%.

Take `N#Cc1c(N)sc(=S)c2c1CCCCC2`: the activity change, negative = inhibition was inactive: 24.2%.

Regarding `COCCNC(=O)C(OC(=O)C1=Cc2ccccc2OC1)C(C)C` (configuration not stated), the activity change, negative = inhibition is inactive: 5.8%.

Regarding `CN(C)N=Nc1ccc(S(=O)(=O)NC(Cc2ccccc2)C(=O)O)cc1` (configuration not stated), the activity change, negative = inhibition is inactive: 0.423%.

As for `O=C(C1CCN(Cc2ccc(F)cc2)CC1)N1CCN(C/C=C/c2ccccc2)CC1`, the activity change, negative = inhibition was inactive: -12.7%.

In the case of `COc1ccccc1/C=N\Nc1ccccc1[N+](=O)[O-]`, the activity change, negative = inhibition is inactive: 1.57%.

As to `Cc1ccc(C(=O)N[C@H](C(=O)Nc2ccc(F)cc2)C(C)C)cc1`, the activity change, negative = inhibition is inactive: 0.0324%.

With `COc1cc(CNc2ccc(CNc3ncn[nH]3)cc2)ccc1OCC(=O)NC(C)(C)C`, the activity change, negative = inhibition was inactive: 0.0386%.

As for `Cc1ccc(S(=O)(=O)N2CCC(C)CC2)c([N+](=O)[O-])c1`, the activity change, negative = inhibition is inactive: -15.2%.

As to `Cc1noc(C)c1COC(=O)C1CCN(C(=O)c2ccc(Cl)cc2)CC1`, the activity change, negative = inhibition is inactive: 18.3%.

For the compound `COCCNC(=O)/C(C#N)=C/c1c(N2CCN(c3cccc(Cl)c3)CC2)nc2c(C)cccn2c1=O`, the activity change, negative = inhibition is inactive: 4.98%.

As for `CCn1cc(C(=O)NCc2ccc(Cl)cc2)c(=O)c2cc(S(=O)(=O)N3CCOCC3)ccc21`, the activity change, negative = inhibition is inactive: -3.15%.

Turning to `CCn1c2ccccc2c2cc(NC(=O)COc3cc(C)ccc3C)ccc21`, the activity change, negative = inhibition is inactive: 1.75%.

Take `CC(OC(=O)c1cc(=O)[nH]c2ccccc12)C(=O)NCc1ccccc1` (configuration not stated): the activity change, negative = inhibition is inactive: 13.8%.

For the compound `COc1ccc(OC)c2c1C(=O)c1ccccc1C2=O`, the activity change, negative = inhibition was inactive: 63%.

Turning to `COc1ccc(-n2c(=O)c3c4c(sc3n(Cc3ccc(C(C)(C)C)cc3)c2=O)CCC4)c(OC)c1`, the activity change, negative = inhibition is inactive: -10.3%.

As for `O=C(Nc1ccccc1Cl)c1ccc(Cl)cc1Cl`, the activity change, negative = inhibition is inactive: 3.08%.

`COc1ccc(NC(=O)COC(=O)C2CC(=O)N(c3ccc(C)cc3)C2)cc1` (configuration not stated): the activity change, negative = inhibition is inactive: 2.46%.

Take `COCCCNC(=O)c1cc2cc([N+](=O)[O-])cc(OC)c2oc1=O`: the activity change, negative = inhibition is inactive: 2.21%.

For the compound `Cc1cc(C)nc(N2CCN(c3nnnn3-c3ccccc3)CC2)n1`, the activity change, negative = inhibition was inactive: -4.73%.

`C#C[C@]1(O)CC[C@H]2[C@@H]3CCC4=CC(=O)CC[C@@H]4[C@H]3CC[C@@]21CC`: the activity change, negative = inhibition was inactive: 4.2%.

On to `COc1cc(/C=C/C(=O)OC(C)C(=O)c2ccccc2)cc(OC)c1OC` (configuration not stated), for which the activity change, negative = inhibition was inactive: 10.8%.

Take `O=C(NCC(=O)N1CCCC(C(F)(F)F)C1)c1cccs1` (configuration not stated): the activity change, negative = inhibition is inactive: -10.4%.

On to `Nc1c(C(=O)NCc2ccc(Cl)cc2Cl)nnn1Cc1ccc(Br)cc1`, for which the activity change, negative = inhibition is inactive: -6.43%.

For `COc1ccc(OCC(=O)Nc2cc(-c3ccccc3F)nn2-c2ccccc2)cc1`, the activity change, negative = inhibition was inactive: 2.5%.

For `O=C(COc1ccc(-c2ccccc2)cc1)N1CCN(C(=O)c2cccs2)CC1`, the activity change, negative = inhibition is inactive: -5.14%.

With `CCOC(=O)c1cn(-c2nc(-c3ccc(Cl)c(Cl)c3)cs2)c2c(F)c(N3CCOCC3)c(F)cc2c1=O`, the activity change, negative = inhibition was inactive: -8.86%.

With `Cc1cccc(Cc2c(C)nc3nc(SCc4ccccc4Cl)nn3c2C)c1`, the activity change, negative = inhibition is inactive: -6.79%.

Turning to `O=C(NCCN1CCN(c2ccccc2)CC1)c1cccc(Br)c1`, the activity change, negative = inhibition is inactive: -10.5%.

Take `Cn1c(=O)oc2cc(S(=O)(=O)N3CCN(c4ccccc4F)CC3)ccc21`: the activity change, negative = inhibition is inactive: 6.62%.

For the compound `COc1ccccc1C(C)NC(=O)c1cc(S(=O)(=O)N2CCCCC2)ccc1C` (configuration not stated), the activity change, negative = inhibition is inactive: -4.33%.

As to `Cc1ccnc(NC(=O)c2cccc(S(=O)(=O)Nc3ccc(C)cc3C)c2)c1`, the activity change, negative = inhibition is inactive: 6.64%.

Turning to `CCOC(=O)c1c(C)[nH]c(C(=O)COC(=O)CNC(=O)c2ccc(Cl)cc2Cl)c1C`, the activity change, negative = inhibition is inactive: 15.3%.

As to `CC(=O)C(c1ccccc1)C(c1ccccc1)C(C)[N+](=O)[O-]` (configuration not stated), the activity change, negative = inhibition is inactive: 6.42%.

Regarding `COC(=O)[C@@]1(C)[C@H]2C(=O)N(Cc3ccccc3)C(=O)[C@H]2[C@H]2CN(C)C(=NC3CCCCC3)N21`, the activity change, negative = inhibition is inactive: 5.6%.

For `COc1ccc(OCCN2CCN(C(=O)c3ccc(OC(F)F)c(OC)c3)CC2)cc1`, the activity change, negative = inhibition was inactive: 0.86%.

Turning to `CCNc1nc(NC(C)(C)C)nc(N2CCCCC2)n1`, the activity change, negative = inhibition was inactive: -0.306%.

In the case of `CCc1ccnc(NC(=O)Nc2ccc(OCc3ccccc3)cc2)c1`, the activity change, negative = inhibition is inactive: -11%.

Turning to `CCc1cccc(NC(=O)C2CCCN(S(=O)(=O)c3ccc4[nH]c(=O)ccc4c3)C2)c1` (configuration not stated), the activity change, negative = inhibition is inactive: 0.67%.

Regarding `Cc1ccc(C)c(S(=O)(=O)N2CC(=O)N(CCc3ccccc3)C(=O)C2)c1`, the activity change, negative = inhibition was inactive: -0.11%.

As for `Cc1[nH]c(=O)[nH]c(=O)c1/C=N/NC(=O)[C@H](C)N`, the activity change, negative = inhibition is inactive: 2.01%.

Turning to `COc1ccc(OC)c(NS(=O)(=O)c2cc3c4c(c2)CCN4C(=O)CC3)c1`, the activity change, negative = inhibition is inactive: -1.42%.

As to `CCOC(=O)C1=NN(C(=O)COc2ccccc2)C(O)(c2ccc(Cl)cc2)C1` (configuration not stated), the activity change, negative = inhibition was inactive: -7.48%.

Turning to `Cc1cc(C)nc(NC(=O)c2ccc(Cl)cc2Cl)n1`, the activity change, negative = inhibition was inactive: 9.79%.

Turning to `O=C(NC(=S)Nc1cccnc1)c1cc2ccccc2o1`, the activity change, negative = inhibition was inactive: 0.466%.

Regarding `O=C(Nc1ccc2c(c1)OCO2)N1CCN(c2ccccc2)CC1`, the activity change, negative = inhibition is inactive: -6.55%.

With `O=C(Nc1ccccc1Br)c1ccccc1-c1ccccc1`, the activity change, negative = inhibition is inactive: 6.9%.

On to `O=C(CSc1nnc(-c2cccnc2)o1)Nc1cccc(Cl)c1`, for which the activity change, negative = inhibition was inactive: -10.9%.

Turning to `CC(C)(C)c1ccc(OCC(=O)Nc2cccc(S(=O)(=O)NC3=NCCCCC3)c2)cc1`, the activity change, negative = inhibition is inactive: 4.64%.

`Cc1cccc(OCC(=O)N(Cc2ccc(C(C)(C)C)cc2)Cc2ccco2)c1`: the activity change, negative = inhibition was inactive: -18.1%.

As to `O=C(CSc1ccccc1)NCc1ccc(F)cc1`, the activity change, negative = inhibition is inactive: -2.97%.

With `CC(=O)OCCn1c2nc(=O)[nH]c(=O)c-2nc2cc(C)c(C)cc21`, the activity change, negative = inhibition was inactive: 54.3%.

In the case of `Cc1ccc2nc3c(c(C(=O)OC4CCOC4=O)c2c1)CCCC3` (configuration not stated), the activity change, negative = inhibition was inactive: 5.65%.

As to `Cc1ccc2cccc(OCCCOc3ccccc3F)c2n1`, the activity change, negative = inhibition is inactive: -6.41%.

As to `CCCCOC(=O)c1ccc(N)cc1`, the activity change, negative = inhibition is inactive: 21%.

For the compound `CCCCNc1cc(F)nc(N)n1`, the activity change, negative = inhibition was inactive: 1.22%.

As for `COc1ccc(Cc2nnc(Nc3ccccc3)s2)cc1Br`, the activity change, negative = inhibition is inactive: -1.2%.

`O=C(Cn1cc2c(n1)CCCC2)NCc1ccccn1`: the activity change, negative = inhibition is inactive: 4.97%.

(Values after PubChem BioAssay AID651803 (National Center for Advancing Translational Sciences (NCATS), 2012).)
